Patent US11884647B2, “Compounds and methods for targeting pathogenic blood vessels” (THE REGENTS OF THE UNIVERSITY OF CALIFORNIA, priority 2019, dated 2024)
The name of at least one read-out is uncertain.

What was measured:
[1] = test system: tumor endothelial cells (CT26.CL25 colon cancer tumor); assay: Colon CT26 ex vivo model of tumor angiogenesis; type: cell-based, mouse
How it was run: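 Explant pieces of CT26 tumor (about 0.075 mm^3) were embedded in Matrigel and grown in endothelial growth medium at 37 °C for about 7 days until endothelial outgrowth appeared, then treated. Cell death was read about 48 h after drug addition by fluorescein diacetate (live) and propidium iodide (dead) staining with red/green imaging.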

[2] = test system: tumor endothelial cells (LL/2 lung cancer tumor); assay: Lung LL2 ex vivo model of tumor angiogenesis; type: cell-based, mouse
How it was run: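 Read-out is live/dead fluorescence imaging (fluorescein diacetate green, propidium iodide red, 10 min at 37° C) at 2×, taken e.g. 48 h after drug addition. Fragments of mouse LL2 tumor are cultured in Matrigel with endothelial growth medium, usually 4 days, until new endothelial cells grow out, then treated.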

SMILES	48 hrs (morphology observations after 48 hours) ([1]; Conc. 10 μm)	48 hrs (morphology observations after 48 hours) ([2]; Conc. 20 μm)	48 hrs (morphology observations after 48 hours) ([1]; Conc. 40 μm)	48 hrs (morphology observations after 48 hours) ([2]; Conc. 40 μm)
CCc1ccc(S(=O)(=O)c2cnc3ccc(OC)cc3c2-n2cncn2)cc1 [compound 79, 3-((4-ethylphenyl)sulfonyl)-6-methoxy-4-(1H-1,2,4-triazol-1-yl)quinoline]	*** (100% of endothelial cells vesicularize in cell shape)	** (more than 50% but less than 100% of endothelial cells vesicularize in cell shape)	–	–
CCc1ccc(S(=O)(=O)c2cnc3ccc(OC(F)(F)F)cc3c2-n2cncn2)cc1 [compound 51, 3-((4-ethylphenyl)sulfonyl)-4-(1H-1,2,4-triazol-1-yl)-6-(trifluoromethoxy)quinoline]	–	–	*** (100% of endothelial cells vesicularize in cell shape)	**** (100% of endothelial cells vesicularize in cell shape and look flattened in morphology (indicating disintegration of the cell body))
COc1ccc(S(=O)(=O)c2cnc3ccc(CC#N)cc3c2-n2cncn2)cc1 [compound 98, 2-(3-((4-methoxyphenyl)sulfonyl)-4-(1H-1,2,4-triazol-1-yl)quinolin-6-yl)acetonitrile]	*** (100% of endothelial cells vesicularize in cell shape)	** (more than 50% but less than 100% of endothelial cells vesicularize in cell shape)	–	–
CCCCCCCOc1ccc(S(=O)(=O)c2cnc3ccc([S+](C)[O-])cc3c2N2CCC(N3CCCN(C)CC3)CC2)cc1 (stereo not shown) [compound 256, 3-((4-(heptyloxy)phenyl)sulfonyl)-4-(4-(4-methyl-1,4-diazepan-1-yl)piperidin-1-yl)-6-(methylsulfinyl)quinoline]	*** (100% of endothelial cells vesicularize in cell shape)	**** (100% of endothelial cells vesicularize in cell shape and look flattened in morphology (indicating disintegration of the cell body))	–	–
CCCCCCCOc1ccc(S(=O)(=O)c2cnc3ccc([S+](C)[O-])cc3c2N2CCCN(CCN3CCCCC3)CC2)cc1 (stereo not shown) [compound 255, 3-((4-(heptyloxy)phenyl)sulfonyl)-6-(methylsulfinyl)-4-(4-(2-(piperidin-1-yl)ethyl)-1,4-diazepan-1-yl)quinoline]	0	* (50% or less of cells vesicularize in cell shape)	–	–
COc1ccc(S(=O)(=O)c2cnc3ccc(OC(F)(F)F)cc3c2N2CCC(O)CC2)cc1 [compound 44, 1-(3-((4-methoxyphenyl)sulfonyl)-6-(trifluoromethoxy)quinolin-4-yl)piperidin-4-ol]	–	–	0	** (more than 50% but less than 100% of endothelial cells vesicularize in cell shape)
CCCCOc1ccc(S(=O)(=O)c2cnc3ccc([S+](C)[O-])cc3c2N2CCC(N3CCC(O)(c4ccccc4)CC3)CC2)cc1 (stereo not shown) [compound 238, 1′-(3-((4-butoxyphenyl)sulfonyl)-6-(methylsulfinyl)quinolin-4-yl)-4-phenyl-[1,4′-bipiperidin]-4-ol]	0	–	–	*** (100% of endothelial cells vesicularize in cell shape)
CCN(CC)C(=O)c1ccc2ncc(S(=O)(=O)c3ccc(OC)cc3)c(N3CCCN(C)CC3)c2c1 [compound 165, N,N-diethyl-3-((4-methoxyphenyl)sulfonyl)-4-(4-methyl-1,4-diazepan-1-yl)quinoline-6-carboxamide]	–	–	0	* (50% or less of cells vesicularize in cell shape)
COc1ccc(S(=O)(=O)c2cnc3ccc(SC)cc3c2N2CCC(N3CCCCC3)CC2)cc1OC [compound 121, 4-([1,4′-bipiperidin]-1′-yl)-3-((3,4-dimethoxyphenyl)sulfonyl)-6-(methylthio)quinoline]	–	–	*** (100% of endothelial cells vesicularize in cell shape)	** (more than 50% but less than 100% of endothelial cells vesicularize in cell shape)
CCCCCCCOc1ccc(S(=O)(=O)c2cnc3ccc([S+](C)[O-])cc3c2N2CCC(N3CCC(N4CCCCC4)CC3)CC2)cc1 (stereo not shown) [compound 258, 4-([1,4′:1′,4″-terpiperidin]-1″-yl)-3-((4-(heptyloxy)phenyl)sulfonyl)-6-(methylsulfinyl)quinoline]	*** (100% of endothelial cells vesicularize in cell shape)	**** (100% of endothelial cells vesicularize in cell shape and look flattened in morphology (indicating disintegration of the cell body))	–	–
COc1ccc(S(=O)(=O)c2cnc3ccc(OC(F)(F)F)cc3c2N2CCCC(O)C2)cc1OC (stereo not shown) [compound 70, 1-(3-((3,4-dimethoxyphenyl)sulfonyl)-6-(trifluoromethoxy)quinolin-4-yl)piperidin-3-ol]	–	–	0	*** (100% of endothelial cells vesicularize in cell shape)
CCOC(=O)c1ccc2ncc(S(=O)(=O)c3ccc(CC)cc3)c(N3CCCN(C)CC3)c2c1 [compound 63, ethyl 3-((4-ethylphenyl)sulfonyl)-4-(4-methyl-1,4-diazepan-1-yl)quinoline-6-carboxylate]	–	–	*** (100% of endothelial cells vesicularize in cell shape)	** (more than 50% but less than 100% of endothelial cells vesicularize in cell shape)
CCc1ccc(S(=O)(=O)c2cnc3ccc(OC(F)(F)F)cc3c2N2CCN(c3ccc(C#N)cc3)CC2)cc1 [compound 45, 4-(4-(3-((4-ethylphenyl)sulfonyl)-6-(trifluoromethoxy)quinolin-4-yl)piperazin-1-yl)benzonitrile]	–	–	0	** (more than 50% but less than 100% of endothelial cells vesicularize in cell shape)
CCCCOc1ccc(S(=O)(=O)c2cnc3ccc(OC(F)(F)F)cc3c2N2CCC(N3CCC(O)CC3)CC2)cc1 [compound 152, 1′-(3-((4-butoxyphenyl)sulfonyl)-6-(trifluoromethoxy)quinolin-4-yl)-[1,4′-bipiperidin]-4-ol]	–	* (50% or less of cells vesicularize in cell shape)	** (more than 50% but less than 100% of endothelial cells vesicularize in cell shape)	–
CCOC(=O)c1ccc2ncc(S(=O)(=O)c3ccc(OC)cc3)c(N(CCO)CCO)c2c1 [compound 156, ethyl 4-(bis(2-hydroxyethyl)amino)-3-((4-methoxyphenyl)sulfonyl)quinoline-6-carboxylate]	–	–	0	** (more than 50% but less than 100% of endothelial cells vesicularize in cell shape)
CCc1ccc(S(=O)(=O)c2cnc3ccc(OC(F)(F)F)cc3c2-n2ccnn2)cc1 [compound 110, 3-((4-ethylphenyl)sulfonyl)-4-(1H-1,2,3-triazol-1-yl)-6-(trifluoromethoxy)quinoline]	–	*** (100% of endothelial cells vesicularize in cell shape)	** (more than 50% but less than 100% of endothelial cells vesicularize in cell shape)	–
CCc1ccc(S(=O)(=O)c2cnc3ccc(OC(F)(F)F)cc3c2N2CCC3(CC2)OCCO3)cc1 [compound 52, 8-(3-((4-ethylphenyl)sulfonyl)-6-(trifluoromethoxy)quinolin-4-yl)-1,4-dioxa-8-azaspiro[4.5]decane]	–	–	0	** (more than 50% but less than 100% of endothelial cells vesicularize in cell shape)
